The source of these data is PMC8998196, “A Second Gamma-Glutamylpolyamine Synthetase, GlnA2, Is Involved in Polyamine Catabolism in Streptomyces coelicolor” (International Journal of Molecular Sciences, 2022).

Chains of the proteins cited; added tags and fusions are not shown. Lines headed by an entry give the natural chain unless they say otherwise; changes in a name come on top.
UniProt Q05943: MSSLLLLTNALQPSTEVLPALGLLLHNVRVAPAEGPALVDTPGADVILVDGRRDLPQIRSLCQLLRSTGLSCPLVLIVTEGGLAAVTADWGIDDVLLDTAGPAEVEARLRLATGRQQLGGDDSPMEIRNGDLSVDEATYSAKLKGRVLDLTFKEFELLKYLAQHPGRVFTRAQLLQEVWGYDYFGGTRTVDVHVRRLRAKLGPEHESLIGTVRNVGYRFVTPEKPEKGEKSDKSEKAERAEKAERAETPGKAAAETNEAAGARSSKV

For at least one entry, the source does not settle the construct or the ends of the probe. No signal at the amounts used counts as a negative. The comparison behind a weaker result is the experiment's own reference, which may not be listed here.

This series concerns the target Strep-GlnR (non-acetylated) (Streptomyces coelicolor) (UniProt Q05943). Put plainly: EMSA. Conditions: EMSA: Cy5-labelled about 250 bp PCR fragments with 0.5-2 ug protein at RT, excess unlabelled specific or non-specific DNA as specificity control, recombinant protein, protein details: N-terminal StrepII-tag, label: Cy5, probe letters rebuilt from the primers and the genome.

For “AGCCAGTGGCGATAAGCACGTGTCGGCTCCTTCGCGCGTGCGCCGTCCGTCGCACACCATTGTGCCGTCCGGTGATCACCCTGTCCGGGTTTCGCCGGATGTGCGCACGACGCGGTGAAGGCCGCCCGGGGTCAGTCCATGGTGGTCGGCTGCGGGGAGGGGGTCCCGCCGTCCAGGACGGTCTTGAGGCGCTCGGTGCCCTGGCGCACCGCCTGTTCGACCGAGTCCGTCTGCCCGCCGTCGAGGCCCCCGCCCATGACGGTGACGGCCTTATCGCCACTGGCT (double strand) [glnA3 promoter region]”, the binding result (conditions equivalent to glnA2, data not shown) is given as “no binding”. Turning to “AGCCAGTGGCGATAAGCATCTTCCGCTTCCCCATCCTTGCTGGTCAGGCCGCCTGTCTCCGGTACGGCGGGAGGCGGTCGGGCACTTGAGCATCACACCACAGCGCCGTTACGTGTGCGTTGCGGACCTCCGTCGGCCGGCCCACCCCGTGACCGCAGCGTAGAGGCCACCTGTTCGATCGGGCCATTCCGGGGATCGGGCCGGGACGGATCCTGTGCCCGCCCTACGAAGGACGGGCCCCGCGCCATTACGATCAGCGGACCTCACGGCTTATCGCCACTGGCT (double strand) [glnA2 promoter region]”, under “shift only at higher protein amounts, weaker than acetylated GlnR”, the binding result is recorded as “binds more weakly”.
